Assay results taken from the supplement of paper PMC11264405.

Columns and labels:
Assay in all cases: minimum inhibitory concentration
linezolid = compound: CC(=O)NC[C@H]1CN(c2ccc(N3CCOCC3)c(F)c2)C(=O)O1 [linezolid]
clindamycin = compound: CCC[C@@H]1C[C@@H](C(=O)N[C@@H]([C@H]2O[C@H](SC)[C@H](O)[C@@H](O)[C@H]2O)[C@H](C)Cl)N(C)C1 [clindamycin]
meropenem = compound: C[C@@H](O)[C@H]1C(=O)N2C(C(=O)O)=C(S[C@@H]3CN[C@H](C(=O)N(C)C)C3)[C@H](C)[C@H]12 [meropenem]
fidaxomicin = compound: CCc1c(Cl)c(O)c(Cl)c(O)c1C(=O)O[C@H]1[C@H](O)[C@H](OC)[C@H](OC/C2=C\C=C\C[C@H](O)/C(C)=C/[C@H](CC)[C@@H](O[C@@H]3OC(C)(C)[C@@H](OC(=O)C(C)C)[C@H](O)[C@@H]3O)/C(C)=C/C(C)=C/C[C@@H]([C@@H](C)O)OC2=O)O[C@@H]1C [fidaxomicin]
metronidazole = compound: Cc1ncc([N+](=O)[O-])n1CCO [metronidazole]
vancomycin = compound: CN[C@H](CC(C)C)C(=O)N[C@H]1C(=O)N[C@@H](CC(N)=O)C(=O)N[C@H]2C(=O)N[C@H]3C(=O)N[C@H](C(=O)N[C@H](C(=O)O)c4cc(O)cc(O)c4-c4cc3ccc4O)[C@H](O)c3ccc(c(Cl)c3)Oc3cc2cc(c3O[C@@H]2O[C@H](CO)[C@@H](O)[C@H](O)[C@H]2O[C@H]2C[C@](C)(N)[C@H](O)[C@H](C)O2)Oc2ccc(cc2Cl)[C@H]1O [vancomycin]
imipenem = compound: C[C@@H](O)[C@H]1C(=O)N2C(C(=O)O)=C(SCCNC=N)C[C@H]12 [imipenem]
tigecycline = compound: CN(C)c1cc(NC(=O)CNC(C)(C)C)c(O)c2c1C[C@H]1C[C@H]3[C@H](N(C)C)C(O)=C(C(N)=O)C(=O)[C@@]3(O)C(O)=C1C2=O [tigecycline]
rifampicin = compound: CO[C@H]1/C=C/O[C@@]2(C)Oc3c(C)c(O)c4c(O)c(c(/C=N/N5CCN(C)CC5)c(O)c4c3C2=O)NC(=O)/C(C)=C\C=C\[C@H](C)[C@H](O)[C@@H](C)[C@@H](O)[C@@H](C)[C@H](OC(C)=O)[C@@H]1C [rifampicin]

| Test System | minimum inhibitory concentration (linezolid) | minimum inhibitory concentration (clindamycin) | minimum inhibitory concentration (meropenem) | minimum inhibitory concentration (fidaxomicin) | minimum inhibitory concentration (metronidazole) | minimum inhibitory concentration (vancomycin) | minimum inhibitory concentration (imipenem) | minimum inhibitory concentration (tigecycline) | minimum inhibitory concentration (rifampicin) |
| --- | --- | --- | --- | --- | --- | --- | --- | --- | --- |
| Clostridioides difficile PCR ribotype 020 isolate #310 (European region: South, country: Italy, isolate source: Animal, ribotype: 020) | 2 µg/mL | 16 µg/mL | 4 µg/mL | 0.03 µg/mL | < 0.125 µg/mL | 0.5 µg/mL | 2 µg/mL | 0.06 µg/mL | < 0.001 µg/mL |
| Clostridioides difficile PCR ribotype 023 isolate #106 (European region: East, country: Poland, isolate source: Human, ribotype: 023) | 2 µg/mL | 0.25 µg/mL | 2 µg/mL | 0.03 µg/mL | < 0.125 µg/mL | 0.5 µg/mL | 2 µg/mL | < 0.03 µg/mL | < 0.001 µg/mL |
| Clostridioides difficile PCR ribotype 023 isolate #107 (European region: East, country: Poland, isolate source: Human, ribotype: 023) | 2 µg/mL | 0.5 µg/mL | 2 µg/mL | 0.03 µg/mL | < 0.125 µg/mL | 0.5 µg/mL | 2 µg/mL | < 0.03 µg/mL | < 0.001 µg/mL |
| Clostridioides difficile PCR ribotype 023 isolate #108 (European region: North, country: UK, isolate source: Human, ribotype: 023) | 2 µg/mL | 0.25 µg/mL | 4 µg/mL | 0.06 µg/mL | < 0.125 µg/mL | 1 µg/mL | 2 µg/mL | 0.06 µg/mL | < 0.001 µg/mL |
| Clostridioides difficile PCR ribotype 024 isolate #109 (European region: East, country: Romania, isolate source: Human, ribotype: 024) | < 0.125 µg/mL | < 0.125 µg/mL | 2 µg/mL | 0.03 µg/mL | < 0.125 µg/mL | 0.5 µg/mL | 4 µg/mL | < 0.03 µg/mL | < 0.001 µg/mL |
| Clostridioides difficile PCR ribotype 026 isolate #110 (European region: North, country: UK, isolate source: Human, ribotype: 026) | 2 µg/mL | 8 µg/mL | 2 µg/mL | 0.015 µg/mL | 0.25 µg/mL | 0.5 µg/mL | 2 µg/mL | < 0.03 µg/mL | < 0.001 µg/mL |
| Clostridioides difficile PCR ribotype 026 isolate #111 (European region: North, country: UK, isolate source: Human, ribotype: 026) | 2 µg/mL | 16 µg/mL | 2 µg/mL | 0.06 µg/mL | < 0.125 µg/mL | 0.5 µg/mL | 2 µg/mL | < 0.03 µg/mL | < 0.001 µg/mL |
| Clostridioides difficile PCR ribotype 026 isolate #112 (European region: North, country: Sweden, isolate source: Human, ribotype: 026) | 0.5 µg/mL | 4 µg/mL | 4 µg/mL | 0.03 µg/mL | < 0.125 µg/mL | 0.5 µg/mL | 2 µg/mL | < 0.03 µg/mL | < 0.001 µg/mL |
| Clostridioides difficile PCR ribotype 026 isolate #113 (European region: West, country: Netherlands, isolate source: Human, ribotype: 026) | 2 µg/mL | 0.5 µg/mL | 2 µg/mL | 0.06 µg/mL | < 0.125 µg/mL | 0.5 µg/mL | 2 µg/mL | < 0.03 µg/mL | < 0.001 µg/mL |
| Clostridioides difficile PCR ribotype 027 isolate #114 (European region: East, country: Poland, isolate source: Human, ribotype: 027) | 2 µg/mL | 4 µg/mL | 4 µg/mL | 0.06 µg/mL | 4 µg/mL | 1 µg/mL | 8 µg/mL | < 0.03 µg/mL | > 32 µg/mL |
| Clostridioides difficile PCR ribotype 027 isolate #115 (European region: East, country: Romania, isolate source: Human, ribotype: 027) | 2 µg/mL | 16 µg/mL | 4 µg/mL | 0.03 µg/mL | 1 µg/mL | 1 µg/mL | 4 µg/mL | < 0.03 µg/mL | > 32 µg/mL |
| Clostridioides difficile PCR ribotype 027 isolate #116 (European region: East, country: Romania, isolate source: Human, ribotype: 027) | 1 µg/mL | 4 µg/mL | 4 µg/mL | 0.03 µg/mL | 1 µg/mL | 1 µg/mL | 4 µg/mL | < 0.03 µg/mL | > 32 µg/mL |
| Clostridioides difficile PCR ribotype 027 isolate #119 (European region: East, country: Poland, isolate source: Human, ribotype: 027) | 2 µg/mL | 16 µg/mL | 4 µg/mL | 0.125 µg/mL | 4 µg/mL | 1 µg/mL | 4 µg/mL | < 0.03 µg/mL | > 32 µg/mL |
| Clostridioides difficile PCR ribotype 027 isolate #120 (European region: East, country: Poland, isolate source: Human, ribotype: 027) | 2 µg/mL | 8 µg/mL | 4 µg/mL | 0.03 µg/mL | 4 µg/mL | 1 µg/mL | 8 µg/mL | < 0.03 µg/mL | < 0.001 µg/mL |
| Clostridioides difficile PCR ribotype 027 isolate #121 (European region: South, country: Italy, isolate source: Human, ribotype: 027) | 2 µg/mL | 4 µg/mL | 4 µg/mL | 0.008 µg/mL | 1 µg/mL | 0.5 µg/mL | 4 µg/mL | < 0.03 µg/mL | > 32 µg/mL |
| Clostridioides difficile PCR ribotype 027 isolate #122 (European region: East, country: Poland, isolate source: Human, ribotype: 027) | 2 µg/mL | 4 µg/mL | 4 µg/mL | 0.06 µg/mL | 2 µg/mL | 0.5 µg/mL | 4 µg/mL | < 0.03 µg/mL | > 32 µg/mL |
| Clostridioides difficile PCR ribotype 027 isolate #123 (European region: North, country: UK, isolate source: Human, ribotype: 027) | 2 µg/mL | > 128 µg/mL | 4 µg/mL | 0.06 µg/mL | 1 µg/mL | 1 µg/mL | 4 µg/mL | 0.06 µg/mL | < 0.001 µg/mL |
| Clostridioides difficile PCR ribotype 027 isolate #124 (European region: East, country: Romania, isolate source: Human, ribotype: 027) | 2 µg/mL | 16 µg/mL | 2 µg/mL | 0.03 µg/mL | 1 µg/mL | 0.5 µg/mL | 8 µg/mL | < 0.03 µg/mL | > 32 µg/mL |
| Clostridioides difficile PCR ribotype 027 isolate #127 (European region: South, country: Italy, isolate source: Human, ribotype: 027) | 2 µg/mL | 16 µg/mL | 4 µg/mL | 0.03 µg/mL | 1 µg/mL | 0.5 µg/mL | 4 µg/mL | 0.06 µg/mL | 16 µg/mL |
| Clostridioides difficile PCR ribotype 027 isolate #128 (European region: South, country: Italy, isolate source: Human, ribotype: 027) | 2 µg/mL | 32 µg/mL | 4 µg/mL | 0.03 µg/mL | 1 µg/mL | 0.5 µg/mL | 4 µg/mL | 0.06 µg/mL | 16 µg/mL |
| Clostridioides difficile PCR ribotype 027 isolate #129 (European region: East, country: Poland, isolate source: Human, ribotype: 027) | 2 µg/mL | 8 µg/mL | 4 µg/mL | 0.03 µg/mL | 4 µg/mL | 0.5 µg/mL | 2 µg/mL | 0.06 µg/mL | 16 µg/mL |
| Clostridioides difficile PCR ribotype 027 isolate #130 (European region: East, country: Poland, isolate source: Human, ribotype: 027) | 2 µg/mL | 8 µg/mL | 4 µg/mL | 0.03 µg/mL | 4 µg/mL | 1 µg/mL | 4 µg/mL | 0.06 µg/mL | < 0.001 µg/mL |
| Clostridioides difficile PCR ribotype 027 isolate #131 (European region: East, country: Poland, isolate source: Human, ribotype: 027) | 2 µg/mL | 8 µg/mL | 8 µg/mL | 0.03 µg/mL | 4 µg/mL | 1 µg/mL | 4 µg/mL | 0.06 µg/mL | < 0.001 µg/mL |
| Clostridioides difficile PCR ribotype 027 isolate #132 (European region: East, country: Poland, isolate source: Human, ribotype: 027) | 2 µg/mL | 8 µg/mL | 8 µg/mL | 0.03 µg/mL | 4 µg/mL | 1 µg/mL | 4 µg/mL | 0.06 µg/mL | < 0.001 µg/mL |
| Clostridioides difficile PCR ribotype 027 isolate #133 (European region: East, country: Poland, isolate source: Human, ribotype: 027) | 2 µg/mL | 8 µg/mL | 8 µg/mL | 0.03 µg/mL | 4 µg/mL | 1 µg/mL | 4 µg/mL | 0.06 µg/mL | < 0.001 µg/mL |
| Clostridioides difficile PCR ribotype 027 isolate #134 (European region: East, country: Poland, isolate source: Human, ribotype: 027) | 2 µg/mL | 8 µg/mL | 8 µg/mL | 0.03 µg/mL | 4 µg/mL | 1 µg/mL | 4 µg/mL | 0.06 µg/mL | < 0.001 µg/mL |

Whole records from above. Order of values: minimum inhibitory concentration (linezolid)	minimum inhibitory concentration (clindamycin)	minimum inhibitory concentration (meropenem)	minimum inhibitory concentration (fidaxomicin)	minimum inhibitory concentration (metronidazole)	minimum inhibitory concentration (vancomycin)	minimum inhibitory concentration (imipenem)	minimum inhibitory concentration (tigecycline)	minimum inhibitory concentration (rifampicin)
Clostridioides difficile PCR ribotype 027 isolate #129 (European region: East, country: Poland, isolate source: Human, ribotype: 027) reads 2 µg/mL	8 µg/mL	4 µg/mL	0.03 µg/mL	4 µg/mL	0.5 µg/mL	2 µg/mL	0.06 µg/mL	16 µg/mL
Clostridioides difficile PCR ribotype 027 isolate #132 (European region: East, country: Poland, isolate source: Human, ribotype: 027) reads 2 µg/mL	8 µg/mL	8 µg/mL	0.03 µg/mL	4 µg/mL	1 µg/mL	4 µg/mL	0.06 µg/mL	< 0.001 µg/mL
